{
  "source": "patent US20140121273A1",
  "about": "“METHOD FOR TREATMENT OF MAGNESIUM AND POTASSIUM DEFICIENCIES” (priority 2005, published 2014)",
  "assay": "Intracellular elemental concentrations in sublingual buccal smears (EXAtest, energy-dispersive X-ray analysis), same study",
  "type": "in vivo, human",
  "conditions": "buccal cells, magnesium group n = 10, mean ± SD",
  "method": "A randomized, double blind, placebo-controlled study was performed at Hartford Hospital. People taking dofetilide or sotalol therapy for at least 5 half-lives were eligible for inclusion. […] After enrollment, people who discontinued their sotalol or dofetilide or altered their dosage of these drugs were excluded as well. Thirty-four participants were enrolled in the study. Three were subsequently excluded because the antiarrhythmics they were using were discontinued or the dose of the antiarrhythmics changed during the study. Given the known baseline differences in QTc intervals among men and women, each gender was randomized separately using stratified allocation. Patients completing the study (n=30) were well matched for baseline characteristics, which are reflected in Table 1. Intracellular concentrations of essential elements were available for 19 subjects. Overall 63.2% of patients (regardless of experimental group) had baseline intracellular magnesium concentrations below the normal reference range of 33.9-41.9 mEq/IU with an average level of 32.6±2.2 mEq/IU. All of the other baseline intracellular elements evaluated (phosphorus, chloride, calcium, potassium, and sodium) were within the reference range although the phosphorus was at the top of the range (average=16.7±2.8 mEq/IU with reference range of 14.2-17.0 mEq/IU).\nParticipants received three tablets of magnesium L-lactate (Mag-Tab SR®; Niche Pharmaceuticals; Roanoke, Tex.) or matching placebo twice daily (504 mg of elemental magnesium daily) for 48 hours (i.e. t=0, 12 h, 24 h, 36 h, and 48 h). A 12-lead electrocardiogram (ECG) was recorded at 25 mm/sec at rest prior to initiation of treatment (i.e. baseline) and at 3 and 51 hours after the first dose of magnesium (i.e. t=3 h and t=51 h) for each participant. A single blinded investigator read all ECGs using a precision ruler of 0.5 mm scale (Schlaedler-Quinzel, Inc. Parsippany, N.J.).\nSublingual buccal smears were obtained from a subgroup of participants prior to initiation of study therapy and following the third dose of magnesium using EXAtest™ kits (Intracellular Diagnostics, Inc.; Foster City, Calif.). Samples were analyzed by energy-dispersive X-ray Analysis for intracellular concentrations of magnesium, phosphorus, chloride, calcium, potassium, and sodium. The use of buccal cell smears for intracellular magnesium was performed because it is noninvasive, reproducible, and correlates well (r=0.68, p<0.002) with atrial cell intracellular magnesium.\nContinuous data was expressed by a mean±SD. A p value less than 0.05 was considered statistically significant. The primary analysis was the intergroup comparisons of the change in QTc interval from baseline at 3 hours and 51 hours using Bazett's formula. Evaluations of the QRS, QT, and RR intervals were compared between groups at each time period as well. Mann-Whitney tests were used for all statistical analyses of continuous ECG data. Intracellular element intragroup comparisons were performed with a paired t-test. Chi^2 or Fischer's Exact tests were used for categorical comparisons. Statistical analysis was performed using SPSS version 5.",
  "data": [
    {"smiles": "C[C@H](O)C(=O)[O-].C[C@H](O)C(=O)[O-].[Mg+2]", "note": "[magnesium L-lactate]", "values": [
      {"measurement": "Intracellular calcium concentration, Baseline", "setting": "before study therapy", "result": "4.2 ± 0.4", "unit": "mEq/IU"},
      {"measurement": "Intracellular chloride concentration, Baseline", "setting": "before study therapy", "result": "4.5 ± 1.4", "unit": "mEq/IU"},
      {"measurement": "Intracellular potassium concentration, Baseline", "setting": "before study therapy", "result": "119.1 ± 22.2", "unit": "mEq/IU"},
      {"measurement": "Intracellular sodium concentration, Baseline", "setting": "before study therapy", "result": "4.4 ± 0.8", "unit": "mEq/IU"},
      {"measurement": "Intracellular phosphorus concentration, Baseline", "setting": "before study therapy, reference range 14.2-17.0", "result": "15.9 ± 2.2", "unit": "mEq/IU"},
      {"measurement": "Intracellular calcium concentration, Post-Dosing", "setting": "following the third dose", "result": "4.3 ± 0.6", "unit": "mEq/IU"},
      {"measurement": "Intracellular chloride concentration, Post-Dosing", "setting": "following the third dose", "result": "3.9 ± 0.6", "unit": "mEq/IU"},
      {"measurement": "Intracellular phosphorus concentration, Post-Dosing", "setting": "following the third dose", "result": "16.5 ± 1.7", "unit": "mEq/IU"},
      {"measurement": "Intracellular potassium concentration, Post-Dosing", "setting": "following the third dose", "result": "96.7 ± 20.4", "unit": "mEq/IU"},
      {"measurement": "Intracellular sodium concentration, Post-Dosing", "setting": "following the third dose", "result": "4.1 ± 0.4", "unit": "mEq/IU"}
    ]}
  ]
}
